We go through 15 compounds from PubChem BioAssay AID1487 (National Center for Advancing Translational Sciences (NCATS), 2009).

The list shows a part of the results. Further columns of the screen follow, without active or inactive calls. Compounds called inactive in the main read-out are mostly missing here. Words in brackets tell the shape of the fitted curve; partial curves, single points and poor fits give uncertain potencies.

The test is described as follows: qHTS Assay for Modulators of Lamin A Splicing. As to conditions: HeLa LMNA splicing GFP/RFP minigene ratio, 48 h. The method, boiled down:
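Read-out is the ratio of GFP to DsRed2 object intensity, acquired by 488 nm laser-scanning cytometry on HeLa lamin A-EGFP minigene reporter cells. Compound incubation 48 hrs at 37 °C in Opti-MEM with 2% FBS; DMSO 0.5% final.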

Setting [1] is: measured here: RFP viability control channel.
Where [2] appears, read: measured here: GFP splicing reporter channel.

With `Cc1cc(C=O)c2c(c1)C=CC1(Oc3ccccc3C(=O)N1C)O2` (centres undefined), under setting [1], the AC50 was 35.5 µM [rising, single point]. Consider `O=C(COc1ccc(Br)cc1Br)NC(=S)Nc1cccc(CO)c1`, for which, under setting [2], the AC50 was 35.5 µM [rising, single point]. Take `CCN(C(=O)CN1CCN(S(=O)(=O)c2cc(Cl)ccc2Cl)CC1)c1c(N)n(Cc2ccccc2)c(=O)[nH]c1=O`: the concentration at half-maximal activity (AC50) under setting [1] is 0.00447 µM [falling, full curve, poor fit]. Take `O=C(NCC1CCCO1)C(c1cccs1)N(Cc1ccccc1)C(=O)c1ccc(-c2ccccc2)[nH]1` (centres undefined): under setting [1], the AC50 was 14.1 µM [rising, single point]. On to `CS(=O)(=O)Nc1cccc(-c2ccc3ncnc(N4CCNCC4)c3c2)c1`, for which the AC50 runs as follows: under setting [2], 12.6 µM [falling, partial curve]; under setting [1], 11.2 µM [falling, single point]. With `CCN1C(=O)CC(N2CCN(c3ccc(Cl)cc3)CC2)C1=O` (centres undefined), the concentration at half-maximal activity (AC50) under setting [2] was 25.1 µM [rising, single point].

On to `CC(C(=O)Nc1cccc([N+](=O)[O-])c1)N1CCN(C/C=C/c2ccccc2)CC1` (centres undefined), for which the AC50 under setting [2] was 14.1 µM [falling, partial curve]. As to `O=C(Nc1nc(-c2cccs2)c(-c2cccs2)s1)C1CCCC1`, the concentration at half-maximal activity (AC50) under setting [1] was 11.2 µM [rising, partial curve, poor fit].

Regarding `CCOc1ccccc1NC(=O)C1CCN(S(=O)(=O)c2ccc(OC)c(OC)c2)CC1`, under setting [2], the AC50 was 0.0891 µM [rising, full curve, poor fit].

As to `Cc1ccc(-c2nn(-c3cc(N4CCNCC4)ccc3[N+](=O)[O-])c(=O)c3ccccc23)cc1`, the AC50 under setting [1] is 25.1 µM [rising, single point]. Take `FC(F)(F)c1cnc(C(c2ccccn2)c2ncn[nH]2)c(Cl)c1` (centres undefined): the AC50 under setting [2] was 35.5 µM [falling, single point].

As to `O=C(Nc1cccc(Cl)c1)C1CCCN(S(=O)(=O)c2ccc(F)cc2)C1` (centres undefined), the AC50 under setting [2] is 15.8 µM [rising, single point] and the AC50 under setting [1] was 22.4 µM [rising, single point].

Turning to `Cc1cc(C(=O)Nc2c[nH]c(=O)[nH]c2=O)ccc1[N+](=O)[O-]`, the AC50 was 0.0891 µM [rising, full curve] under setting [2] and 0.126 µM [rising, full curve, poor fit] under setting [1].

Take `Cc1cccc(C)c1NC(=O)CN1CCN(CCCC(c2ccc(F)cc2)c2ccc(F)cc2)CC1`: the half-maximal activity concentration (AC50) by setting is: under setting [2], 0.282 µM [falling, full curve]; under setting [1], 0.355 µM [falling, full curve, poor fit]. Turning to `CC(C)CNS(=O)(=O)c1ccc(CCC(=O)Nc2cc(Cl)ccc2Oc2ccccc2)cc1`, under setting [1], the AC50 is 31.6 µM [rising, single point].
